This passage reports AUC results from article PMC12518634, “The noncanonical function of liver-type phosphofructokinase potentiates the efficacy of HDAC inhibitors in cancer” (Signal Transduction and Targeted Therapy, 2025).

In one assay the test system is 1405R3. As to the kind of experiment: High-throughput drug screen, CellTiter-Glo viability, 72 h. In kind it is cell-based, human. More on the design: scale not given here. As for the experimental part: (§1) The cells were seeded and incubated with a gradient of concentrations of drugs for 72 h, after which the cell viability was assessed (Supplementary Fig. 1a). The drug library primarily comprises epigenetic drugs, including HDAC inhibitors, DNA methyltransferase inhibitors, and histone demethylase inhibitors, as well as conventional chemotherapies and kinase inhibitors (Supplementary Fig. 1b and Supplementary Table 1). […] To identify novel therapeutics against CCA, we conducted a high-throughput screen employing PerkinElmer’s integrated robotic Explorer G3 workstations. […] Following dilution to five specified concentrations, drugs were dispensed into 96-well plates in the sequence detailed in Supplementary Fig. 1a. […] We then quantified cell viability via the CellTiter-Glo luminescent assay according to the manufacturer’s protocol. Signal detection was carried out on a Synergy2 plate reader operated by Gen5 software (BioTek). For data processing, the raw luminescence data were processed through the Breeze pipeline for curve fitting, yielding quality control metrics (e.g., Z-factors) and drug response parameters (AUC and DSS), as adapted from previous work.[54] Drug responses were evaluated on the basis of the drug sensitivity score (DSS), and a cutoff of ≥10 was used to define efficacy. […]
(ATP-based viability assays read luminescence as a measure of living cells.)

A further assay concerns 783C-6. The description is as above. In kind it is cell-based, human. Also noted: scale not given here. As for the experimental part: as §1

SMILES strings stand for the structures.

In the case of `CCNC(=O)C[C@@H]1N=C(c2ccc(Cl)cc2)c2cc(OC)ccc2-n2c(C)nnc21` [I-BET-762], the AUC with 1405R3 came to 51.5; with 783C-6, 0.6.
